Experimental data taken from patent US20160311887A1.

Target: activated Protein C (APC) (human)
Test: bacterial lysate screen, retested in triplicate; APC inhibition better than or equal to P2KP1′K PCI

Binder | binding
PCI variant 4.H7 (P4 G, P2 I, P1′ R) (protein) APSSRRDFTFDLYRALASAAPSQNIFFSPVSISMSLAMLSLGAGSSTKMQILEGLGLNLQKSSEKELHRGFQQLLQELNQPRDGFQLSLGNALFTDLVVDLQDTFVSAMKTLYLADTFPTNFRDSAGAMKQINDYVAKQTKGKIVDLLKNLDSNAVVIMVNYIFFKAKWETSFNHKGTQEQDFYVTSETVVRVPMMSREDQYHYLLDRNLSCRVVGVPYQGNATALFILPSEGKMQQVENGLSEKTLRKWLKMFKKRQLELYLPKFSIEGSYQLEKVLPSLGISNVFTSHADLSGISNHSNIQVSEMVHKAVVEVDESGTRAAAATGTIGTIRRARLNSQRLVFNRPFLMFIVDNNILFLGKVNRP | binds
PCI variant 4.E4 (P4 K, P2 D, P1′ M) (protein) APSSRRDFTFDLYRALASAAPSQNIFFSPVSISMSLAMLSLGAGSSTKMQILEGLGLNLQKSSEKELHRGFQQLLQELNQPRDGFQLSLGNALFTDLVVDLQDTFVSAMKTLYLADTFPTNFRDSAGAMKQINDYVAKQTKGKIVDLLKNLDSNAVVIMVNYIFFKAKWETSFNHKGTQEQDFYVTSETVVRVPMMSREDQYHYLLDRNLSCRVVGVPYQGNATALFILPSEGKMQQVENGLSEKTLRKWLKMFKKRQLELYLPKFSIEGSYQLEKVLPSLGISNVFTSHADLSGISNHSNIQVSEMVHKAVVEVDESGTRAAAATGTIKTDRMARLNSQRLVFNRPFLMFIVDNNILFLGKVNRP | binds
PCI variant 3.E8 (P4 F, P2 R, P1′ K) (protein) APSSRRDFTFDLYRALASAAPSQNIFFSPVSISMSLAMLSLGAGSSTKMQILEGLGLNLQKSSEKELHRGFQQLLQELNQPRDGFQLSLGNALFTDLVVDLQDTFVSAMKTLYLADTFPTNFRDSAGAMKQINDYVAKQTKGKIVDLLKNLDSNAVVIMVNYIFFKAKWETSFNHKGTQEQDFYVTSETVVRVPMMSREDQYHYLLDRNLSCRVVGVPYQGNATALFILPSEGKMQQVENGLSEKTLRKWLKMFKKRQLELYLPKFSIEGSYQLEKVLPSLGISNVFTSHADLSGISNHSNIQVSEMVHKAVVEVDESGTRAAAATGTIFTRRKARLNSQRLVFNRPFLMFIVDNNILFLGKVNRP | binds
PCI variant 3.G11 (P4 W, P2 W, P1′ N) (protein) APSSRRDFTFDLYRALASAAPSQNIFFSPVSISMSLAMLSLGAGSSTKMQILEGLGLNLQKSSEKELHRGFQQLLQELNQPRDGFQLSLGNALFTDLVVDLQDTFVSAMKTLYLADTFPTNFRDSAGAMKQINDYVAKQTKGKIVDLLKNLDSNAVVIMVNYIFFKAKWETSFNHKGTQEQDFYVTSETVVRVPMMSREDQYHYLLDRNLSCRVVGVPYQGNATALFILPSEGKMQQVENGLSEKTLRKWLKMFKKRQLELYLPKFSIEGSYQLEKVLPSLGISNVFTSHADLSGISNHSNIQVSEMVHKAVVEVDESGTRAAAATGTIWTWRNARLNSQRLVFNRPFLMFIVDNNILFLGKVNRP | binds
PCI variant 4.F7 (P4 F, P2 V, P1′ K) (protein) APSSRRDFTFDLYRALASAAPSQNIFFSPVSISMSLAMLSLGAGSSTKMQILEGLGLNLQKSSEKELHRGFQQLLQELNQPRDGFQLSLGNALFTDLVVDLQDTFVSAMKTLYLADTFPTNFRDSAGAMKQINDYVAKQTKGKIVDLLKNLDSNAVVIMVNYIFFKAKWETSFNHKGTQEQDFYVTSETVVRVPMMSREDQYHYLLDRNLSCRVVGVPYQGNATALFILPSEGKMQQVENGLSEKTLRKWLKMFKKRQLELYLPKFSIEGSYQLEKVLPSLGISNVFTSHADLSGISNHSNIQVSEMVHKAVVEVDESGTRAAAATGTIFTVRKARLNSQRLVFNRPFLMFIVDNNILFLGKVNRP | binds
PCI variant 3.C3 (P4 V, P2 R, P1′ I) (protein) APSSRRDFTFDLYRALASAAPSQNIFFSPVSISMSLAMLSLGAGSSTKMQILEGLGLNLQKSSEKELHRGFQQLLQELNQPRDGFQLSLGNALFTDLVVDLQDTFVSAMKTLYLADTFPTNFRDSAGAMKQINDYVAKQTKGKIVDLLKNLDSNAVVIMVNYIFFKAKWETSFNHKGTQEQDFYVTSETVVRVPMMSREDQYHYLLDRNLSCRVVGVPYQGNATALFILPSEGKMQQVENGLSEKTLRKWLKMFKKRQLELYLPKFSIEGSYQLEKVLPSLGISNVFTSHADLSGISNHSNIQVSEMVHKAVVEVDESGTRAAAATGTIVTRRIARLNSQRLVFNRPFLMFIVDNNILFLGKVNRP | binds
PCI variant 4.F10 (P4 R, P2 R, P1′ I) (protein) APSSRRDFTFDLYRALASAAPSQNIFFSPVSISMSLAMLSLGAGSSTKMQILEGLGLNLQKSSEKELHRGFQQLLQELNQPRDGFQLSLGNALFTDLVVDLQDTFVSAMKTLYLADTFPTNFRDSAGAMKQINDYVAKQTKGKIVDLLKNLDSNAVVIMVNYIFFKAKWETSFNHKGTQEQDFYVTSETVVRVPMMSREDQYHYLLDRNLSCRVVGVPYQGNATALFILPSEGKMQQVENGLSEKTLRKWLKMFKKRQLELYLPKFSIEGSYQLEKVLPSLGISNVFTSHADLSGISNHSNIQVSEMVHKAVVEVDESGTRAAAATGTIRTRRIARLNSQRLVFNRPFLMFIVDNNILFLGKVNRP | binds
PCI variant 3.B11 (P4 F, P2 F, P1′ R) (protein) APSSRRDFTFDLYRALASAAPSQNIFFSPVSISMSLAMLSLGAGSSTKMQILEGLGLNLQKSSEKELHRGFQQLLQELNQPRDGFQLSLGNALFTDLVVDLQDTFVSAMKTLYLADTFPTNFRDSAGAMKQINDYVAKQTKGKIVDLLKNLDSNAVVIMVNYIFFKAKWETSFNHKGTQEQDFYVTSETVVRVPMMSREDQYHYLLDRNLSCRVVGVPYQGNATALFILPSEGKMQQVENGLSEKTLRKWLKMFKKRQLELYLPKFSIEGSYQLEKVLPSLGISNVFTSHADLSGISNHSNIQVSEMVHKAVVEVDESGTRAAAATGTIFTFRRARLNSQRLVFNRPFLMFIVDNNILFLGKVNRP | binds
PCI variant 3.G10 (P4 C, P2 L, P1′ K) (protein) APSSRRDFTFDLYRALASAAPSQNIFFSPVSISMSLAMLSLGAGSSTKMQILEGLGLNLQKSSEKELHRGFQQLLQELNQPRDGFQLSLGNALFTDLVVDLQDTFVSAMKTLYLADTFPTNFRDSAGAMKQINDYVAKQTKGKIVDLLKNLDSNAVVIMVNYIFFKAKWETSFNHKGTQEQDFYVTSETVVRVPMMSREDQYHYLLDRNLSCRVVGVPYQGNATALFILPSEGKMQQVENGLSEKTLRKWLKMFKKRQLELYLPKFSIEGSYQLEKVLPSLGISNVFTSHADLSGISNHSNIQVSEMVHKAVVEVDESGTRAAAATGTICTLRKARLNSQRLVFNRPFLMFIVDNNILFLGKVNRP | binds

Second part, the binder after the results:

binding | Binder
binds | PCI variant 5.E7 (P4 L, P2 R, P1′ I) (protein) APSSRRDFTFDLYRALASAAPSQNIFFSPVSISMSLAMLSLGAGSSTKMQILEGLGLNLQKSSEKELHRGFQQLLQELNQPRDGFQLSLGNALFTDLVVDLQDTFVSAMKTLYLADTFPTNFRDSAGAMKQINDYVAKQTKGKIVDLLKNLDSNAVVIMVNYIFFKAKWETSFNHKGTQEQDFYVTSETVVRVPMMSREDQYHYLLDRNLSCRVVGVPYQGNATALFILPSEGKMQQVENGLSEKTLRKWLKMFKKRQLELYLPKFSIEGSYQLEKVLPSLGISNVFTSHADLSGISNHSNIQVSEMVHKAVVEVDESGTRAAAATGTILTRRIARLNSQRLVFNRPFLMFIVDNNILFLGKVNRP
binds | PCI variant 5.D2 (P4 T, P2 R, P1′ V) (protein) APSSRRDFTFDLYRALASAAPSQNIFFSPVSISMSLAMLSLGAGSSTKMQILEGLGLNLQKSSEKELHRGFQQLLQELNQPRDGFQLSLGNALFTDLVVDLQDTFVSAMKTLYLADTFPTNFRDSAGAMKQINDYVAKQTKGKIVDLLKNLDSNAVVIMVNYIFFKAKWETSFNHKGTQEQDFYVTSETVVRVPMMSREDQYHYLLDRNLSCRVVGVPYQGNATALFILPSEGKMQQVENGLSEKTLRKWLKMFKKRQLELYLPKFSIEGSYQLEKVLPSLGISNVFTSHADLSGISNHSNIQVSEMVHKAVVEVDESGTRAAAATGTITTRRVARLNSQRLVFNRPFLMFIVDNNILFLGKVNRP

Target: activated Protein C (APC) (human)
Test: bacterial lysate screen, residual APC activity lower than or equal to that with P2KP1′K PCI

binding | Binder
binds | PCI variant E7 (P4 S, P2 H, P1′ R) (protein) APSSRRDFTFDLYRALASAAPSQNIFFSPVSISMSLAMLSLGAGSSTKMQILEGLGLNLQKSSEKELHRGFQQLLQELNQPRDGFQLSLGNALFTDLVVDLQDTFVSAMKTLYLADTFPTNFRDSAGAMKQINDYVAKQTKGKIVDLLKNLDSNAVVIMVNYIFFKAKWETSFNHKGTQEQDFYVTSETVVRVPMMSREDQYHYLLDRNLSCRVVGVPYQGNATALFILPSEGKMQQVENGLSEKTLRKWLKMFKKRQLELYLPKFSIEGSYQLEKVLPSLGISNVFTSHADLSGISNHSNIQVSEMVHKAVVEVDESGTRAAAATGTISTHRRARLNSQRLVFNRPFLMFIVDNNILFLGKVNRP
binds | PCI variant H11 (P4 A, P2 Q, P1′ Y) (protein) APSSRRDFTFDLYRALASAAPSQNIFFSPVSISMSLAMLSLGAGSSTKMQILEGLGLNLQKSSEKELHRGFQQLLQELNQPRDGFQLSLGNALFTDLVVDLQDTFVSAMKTLYLADTFPTNFRDSAGAMKQINDYVAKQTKGKIVDLLKNLDSNAVVIMVNYIFFKAKWETSFNHKGTQEQDFYVTSETVVRVPMMSREDQYHYLLDRNLSCRVVGVPYQGNATALFILPSEGKMQQVENGLSEKTLRKWLKMFKKRQLELYLPKFSIEGSYQLEKVLPSLGISNVFTSHADLSGISNHSNIQVSEMVHKAVVEVDESGTRAAAATGTIATQRYARLNSQRLVFNRPFLMFIVDNNILFLGKVNRP
binds | PCI variant E11 (P4 T, P2 L, P1′ Y) (protein) APSSRRDFTFDLYRALASAAPSQNIFFSPVSISMSLAMLSLGAGSSTKMQILEGLGLNLQKSSEKELHRGFQQLLQELNQPRDGFQLSLGNALFTDLVVDLQDTFVSAMKTLYLADTFPTNFRDSAGAMKQINDYVAKQTKGKIVDLLKNLDSNAVVIMVNYIFFKAKWETSFNHKGTQEQDFYVTSETVVRVPMMSREDQYHYLLDRNLSCRVVGVPYQGNATALFILPSEGKMQQVENGLSEKTLRKWLKMFKKRQLELYLPKFSIEGSYQLEKVLPSLGISNVFTSHADLSGISNHSNIQVSEMVHKAVVEVDESGTRAAAATGTITTLRYARLNSQRLVFNRPFLMFIVDNNILFLGKVNRP
binds | PCI variant E10 (P4 R, P2 Q, P1′ V) (protein) APSSRRDFTFDLYRALASAAPSQNIFFSPVSISMSLAMLSLGAGSSTKMQILEGLGLNLQKSSEKELHRGFQQLLQELNQPRDGFQLSLGNALFTDLVVDLQDTFVSAMKTLYLADTFPTNFRDSAGAMKQINDYVAKQTKGKIVDLLKNLDSNAVVIMVNYIFFKAKWETSFNHKGTQEQDFYVTSETVVRVPMMSREDQYHYLLDRNLSCRVVGVPYQGNATALFILPSEGKMQQVENGLSEKTLRKWLKMFKKRQLELYLPKFSIEGSYQLEKVLPSLGISNVFTSHADLSGISNHSNIQVSEMVHKAVVEVDESGTRAAAATGTIRTQRVARLNSQRLVFNRPFLMFIVDNNILFLGKVNRP

These are yes or no findings as the source states them, for the method shown. Binding calls can cover weak binding; strength is not graded here.
